Results are given in words; binding and its absence hold for the method and conditions named. In cells and extracts the contact can be indirect. These calls come from enrichment with a bait or labelling near it, and not all partners need be listed.

Protein sequences, listed by entry. Tags and fused reporters are not part of them.
UniProt Q08509: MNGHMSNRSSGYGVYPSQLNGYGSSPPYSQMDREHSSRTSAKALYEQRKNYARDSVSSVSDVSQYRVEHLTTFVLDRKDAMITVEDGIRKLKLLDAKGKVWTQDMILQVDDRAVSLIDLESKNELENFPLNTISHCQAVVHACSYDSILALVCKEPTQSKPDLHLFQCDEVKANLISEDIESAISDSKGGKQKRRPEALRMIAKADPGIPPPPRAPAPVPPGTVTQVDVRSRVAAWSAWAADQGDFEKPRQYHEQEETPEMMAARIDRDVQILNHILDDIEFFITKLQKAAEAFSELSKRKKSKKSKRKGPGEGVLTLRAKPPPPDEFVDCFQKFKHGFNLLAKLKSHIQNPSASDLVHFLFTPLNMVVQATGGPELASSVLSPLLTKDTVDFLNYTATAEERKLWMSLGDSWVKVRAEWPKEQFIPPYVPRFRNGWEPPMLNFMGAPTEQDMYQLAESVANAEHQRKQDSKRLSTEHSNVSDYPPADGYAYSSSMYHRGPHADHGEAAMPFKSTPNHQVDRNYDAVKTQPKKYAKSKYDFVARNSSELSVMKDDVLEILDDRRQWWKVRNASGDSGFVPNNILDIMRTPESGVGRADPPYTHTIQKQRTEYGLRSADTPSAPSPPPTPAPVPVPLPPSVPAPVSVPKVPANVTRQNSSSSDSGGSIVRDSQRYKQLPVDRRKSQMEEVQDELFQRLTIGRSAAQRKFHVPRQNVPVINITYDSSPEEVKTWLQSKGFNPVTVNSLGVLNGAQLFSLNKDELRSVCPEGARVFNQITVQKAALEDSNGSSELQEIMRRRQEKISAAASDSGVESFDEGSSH

The values that follow come from PMC10711657.

This assay concerns the target GFP‐Eps8‐wild type (WT) (mouse (primer names: mEps8)) (UniProt Q08509). As to the kind of experiment: affinity purification with mass spectrometry; whole-cell GFP-trap pull-down of GFP-Eps8-WT bait from transfected CAD cells treated with DMSO or 50 μM CK-666 for 1 h; on-bead digestion, LC-MS/MS; hits against cytosolic GFP-expressing cells; three preparations.

B1: Myo1b (protein, UniProt P46735 1-1107)
chain: MAKMEVKSSLLDNMIGVGDMVLLEPLNEETFIDNLKKRFDHNEIYTYIGSVVISVNPYRSLPIYSPEKVEDYRNRNFYELSPHIFALSDEAYRSLRDQDKDQCILITGESGAGKTEASKLVMSYVAAVCGKGAEVNQVKEQLLQSNPVLEAFGNAKTVRNDNSSRFGKYMDIEFDFKGDPLGGVISNYLLEKSRVVKQPRGERNFHVFYQLLSGASEELLYKLKLERDFSRYNYLSLDSAKVNGVDDAANFRTVRNAMQIVGFLDHEAEAVLEVVAAVLKLGNIEFKPESRVNGLDESKIKDKNELKEICELTSIDQVVLERAFSFRTVEAKQEKVSTTLNVAQAYYARDALAKNLYSRLFSWLVNRINESIKAQTKVRKKVMGVLDIYGFEIFEDNSFEQFIINYCNEKLQQIFIELTLKEEQEEYIREDIEWTHIDYFNNAIICDLIENNTNGILAMLDEECLRPGTVTDETFLEKLNQVCATHQHFESRMSKCSRFLNDTTLPHSCFRIQHYAGKVLYQVEGFVDKNNDLLYRDLSQAMWKAGHSLIKSLFPEGNPAKVNLKRPPTAGSQFKASVATLMRNLQTKNPNYIRCIKPNDKKAAHIFNESLVCHQIRYLGLLENVRVRRAGYAFRQAYEPCLERYKMLCKQTWPHWKGPARSGVEVLFNELEIPVEEHSFGRSKIFIRNPRTLFQLEDLRKQRLEDLATLIQKIYRGWKCRTHFLLMKRSQVVIAAWYRRYAQQKRYQQIKSSALVIQSYIRGWKARKILRELKHQKRCKEAATTIAAYWHGTQARRELKRLKEEARRKHAVAVIWAYWLGLKVRREYRKFFRANAGKKIYEFTLQRIVQKYLLEMKNKMPSLSPIDKNWPSRPYLFLDSTHKELKRIFHLWRCKKYRDQFTDQQKLIYEEKLEASELFKDKKALYPSSVGQPFQGAYLEINKNPKYKKLKDAIEEKIIIAEVVNKINRANGKSTSRIFLLTNNNLLLADQKSGQIKSEVPLVDVTKVSMSSQNDGFFAVHLKEGSEAASKGDFLFSSDHLIEMATKLYRTTLSQTKQKLNIEISDEFLVQFRQDKVCVKFIQGNQKNGSVPTCKRKNNRLLEVAVP
For the molecule B1, the binding entry is recorded as “binds”.

B2: tropomodulin 2 (Tmod2) (protein, UniProt Q9JKK7 1-351)
chain: MALPFQKGLEKYKNIDEDELLGKLSEEELKQLENVLDDLDPESATLPAGFRQKDQTQKAATGPFDREHLLMYLEKEALEQKDREDFVPFTGEKKGRVFIPKEKPVETRKEEKVTLDPELEEALASASDTELYDLAAVLGVHNLLNNPKFDEETTNGEGRKGPVRNVVKGEKAKPVFEEPPNPTNVEASLQQMKANDPSLQEVNLNNIKNIPIPTLKEFAKSLETNTHVKKFSLAATRSNDPVALAFAEMLKVNKTLKSLNVESNFITGTGILALVEALRENDTLTEIKIDNQRQQLGTAVEMEIAQMLEENSRILKFGYQFTKQGPRTRVAAAITKNNDLVRKKRVEGDRR
Regarding B2, the binding result is listed as “binds”.

B3: flightless 1 (Flii) (protein, UniProt Q9JJ28 1-1271)
chain: MEATGVLPFVRGVDLSGNDFKGGYFPENVKAMTSLRWLKLNRTGLCYLPEELAALQKLEHLSVSHNHLTTLHGELSSLPSLRAIVARANSLKNSGVPDDIFKLDDLSVLDLSHNQLTECPRELENAKNMLVLNLSHNGIDSIPNQLFINLTDLLYLDLSENRLESLPPQMRRLVHLQTLVLNGNPLLHAQLRQLPAMMALQTLHLRNTQRTQSNLPTSLEGLSNLSDVDLSCNDLTRVPECLYTLPSLRRLNLSSNQIAELSLCIDQWVHLETLNLSRNQLTSLPSAICKLTKLKKLYLNSNKLDFDGLPSGIGKLTSLEEFMAANNNLELIPESLCRCPKLKKLVLNKNRLVTLPEAIHFLTEIQVLDVRENPSLVMPPKPADRTAEWYNIDFSLQNQLRLAGASPATVAAAAAVGSGSKDPLARKMRLRRRKDSAQDVQAKQVLKGMSDVAQEKNKNQEESIDARAPGGKVRRWDQGLEKPRLDYSEFFTEDVGQLPGLTIWQIENFVPVLVEEAFHGKFYEADCYIVLKTFLDDSGSLNWEIYYWIGGEATLDKKACSAIHAVNLRNYLGAECRTVREEMGDESEEFLQVFDNDISYIEGGTASGFYTVEDTHYVTRMYRVYGKKNIKLEPVPLKGSSLDPRFVFLLDQGLDIYVWRGAQATLSNTTKARLFAEKINKNERKGKAEITLLVQGQEPPGFWDVLGGEPSEIKNHVPDDFWPPQPKLYKVGLGLGYLELPQINYKLSVEHKKRPKVELMPGMRLLQSLLDTRCVYILDCWSDVFIWLGRKSPRLVRAAALKLGQELCGMLHRPRHTVVSRSLEGTEAQVFKAKFKNWDDVLTVDYTRNAEAVLQGQGLSGKVKRDTEKTDQMKADLTALFLPRQPPMPLAEAEQLMEEWNEDLDGMEGFVLEGRKFTRLPEEEFGHFYTQDCYVFLCRYWVPVEYEEEEKTEDKEGKASAEAREGEEAAAEAEEKQPEEDFQCIVYFWQGREASNMGWLTFTFSLQKKFESLFPGKLEVVRMTQQQENPKFLSHFKRKFIIHRGKRKVTQGTLQPTLYQIRTNGSALCTRCIQINTDSSLLNSEFCFILKVPFESEDNQGIVYAWVGRASDPDEAKLAEDILNTMFDASYSKQVINEGEEPENFFWVGIGAQKPYDDDAEYMKHTRLFRCSNEKGYFAVTEKCSDFCQDDLADDDIMLLDNGQEVYMWVGTQTSQVEIKLSLKACQVYIQHTRSKEHERPRRLRLVRKGNEQRAFTRCFHAWSTFRQAPA
For B3, the binding entry is on record as “binds”.

B4: Myl12a (protein, UniProt Q6ZWQ9 1-172)
chain: MSSKRAKTKTTKKRPQRATSNVFAMFDQSQIQEFKEAFNMIDQNRDGFIDKEDLHDMLASMGKNPTDEYLDAMMNEAPGPINFTMFLTMFGEKLNGTDPEDVIRNAFACFDEEAIGTIQEDYLRELLTTMGDRFTDEEVDELYREAPIDKKGNFNYIEFTRILKHGAKDKDD
Turning to B4, the binding entry was “binds”.

B5: Myl12b (protein, UniProt Q3THE2 1-172)
chain: MSSKKAKTKTTKKRPQRATSNVFAMFDQSQIQEFKEAFNMIDQNRDGFIDKEDLHDMLASLGKNPTDAYLDAMMNEAPGPINFTMFLTMFGEKLNGTDPEDVIRNAFACFDEEATGTIQEDYLRELLTTMGDRFTDEEVDELYREAPIDKKGNFNYIEFTRILKHGAKDKDD
As to B5, the binding result is reported as “binds”.

B6: coronin 2b (Coro2b) (protein, UniProt Q8BH44 1-480)
chain: MTVTKMSWRPQYRSSKFRNVYGKAANREHCFDGIPITKNVHDNHFCAVNARFLAIVTESAGGGSFLVIPLEQTGRIEPNYPKVCGHQGNVLDIKWNPFIDNIIASCSEDTSVRIWEIPDGGLKRNMTEALLELHGHSRRVGLVEWHPTTNNILFSAGYDYKVLIWNLDIGEPVKMIDCHTDVILCMSFNTDGSLLTTTCKDKKLRVIEPRSGRVLQEANCKNHRVNRVVFLGNMKRLLTTGVSRWNTRQIALWDQEDLSMPMIEEEIDGLSGLLFPFYDADTHMLYLAGKGDGNIRYYEISTEKPYLSYLMEFRSPAPQKGLGVMPKHGLDVSACEVFRFYKLVTLKGLIEPISMIVPRRSDSYQEDIYPMTPGTEPALTPDEWLGGINRDPVLMSLKEGYKKSSKVVFKAPIREKKSVVVNGIDLLENVPPRTENELLRMFFRQQDEIRRLKEELAQKDIRLRQLQLELKNLRNNPKNC
For B6, the binding result is “binds”.

B7: Myl6 (protein, UniProt Q60605 1-151)
chain: MCDFTEDQTAEFKEAFQLFDRTGDGKILYSQCGDVMRALGQNPTNAEVLKVLGNPKSDEMNVKVLDFEHFLPMLQTVAKNKDQGTYEDYVEGLRVFDKEGNGTVMGAEIRHVLVTLGEKMTEEEVEMLVAGHEDSNGCINYEAFVRHILSG
For B7, the binding entry is given as “binds”.

B8: Cdc42ep1 (MSE55) (protein, UniProt Q91W92 1-409)
chain: MPGPQGGTGAPTMSLGKLSPVGWVSSSHGKRRLTADMISPPLGDFRHTMHVGRGGDVFGDTSFLSNHGGRSGNTHRSPRSFLARKLQQVRRVGVPPRRMASPAAPSPAPPPISPIIKNAISLPQLNQATYDSLVMGKLSFDSTPASSTDGHSGYGLESGFCTISRLPRVEKHSNRDRDRDPDHSQDREQSSFPSEPTPNPELRRSDSLLSFRFDLDLGPSLLSELLGVMSLSEAPAAETPVPTANPPAPAANPAPTAKPPAHAITTLDAVTSLPASAVTSLPAPAAASSPSRGHFPNGVTSVLGPAAEAKPSPVGEGPQVPSNMTFDRHGASWGASRASWGASRASRHYTEMDARRELAGVLPQVHGSWESLNEDWSTPPASVRAPVPTSVQVNAFEFADAEEDDEVKV
As to B8, the binding result is on record as “binds”.

B9: Slingshot homology 2 (Ssh2) (protein, UniProt Q5SW75 1-1423)
chain: MALVTVQRSPTPSTTSSPCASEADSGEEECRSQPRSISESFLTVKGAALFLPRGNGSSTPRVSHRRNKHAGDLQQHLQAMFILLRPEDNIRLAVRLESTYQNRTRYMVVVSTNGRQDTEESIVLGMDFSSNDSSTCTMGLVLPLWSDTLIHLDGDGGFSVSTDNRVHIFKPVSVQAMWSALQSLHKACEVARMHNYYPGSLFLTWVSYYESHINSDQSSVNEWNAMQDVQSHRPDSPALFTDIPTERERTERLIKTKLREIMMQKDLENITSKEIRTELEMQMVCNLREFKEFIDNEMIVILGQMDSPTQIFEHVFLGSEWNASNLEDLQNRGVRYILNVTREIDNFFPGVFEYHNIRVYDEEATDLLAYWNDTYKFISKAKKHGSKCLVHCKMGVSRSASTVIAYAMKEYGWNLDRAYDYVKERRTVTKPNPSFMRQLEEYQGILLASKQRHNKLWRSHSDSDLSDHHEPICKPGLELNKKEMTTSADQIAEVKTVENLAAMPTVFMEHVVPQDANQKGLHTKERVICLEFSSQEFRAGQIEDELNLNDINGCSSGCCLSESKLPLDNCHASKALLQPGQAPDIANKFPDLAVEDLETDALKADMNVHLLPMEELTSRLKDLPMSPDLESPSPQASCQAAISDFSTDRIDFFSALEKFVELSQETRSRSFSHSRIEELGGGRSEGCRLSVIEVAASEMAADDQRSSSLSNTPHASEESSVDEDQSKAITELVSPDIIMQSHSENAISVKEIVTEIESISQGVGQVQLKGDILSNPCHTPKKSTIHELPLERVPAPESKPGHWEQDESFCSVQPELARDSGKCAPEEGCLTTHSSTADLEEEEPVEGEHDWGPGMHSGAKWCPGSVRRATLEFEERLRQEQENHGTASAGPTLSNRKNSKNDSSVADLMPKWKSDETTPEHSFFLKEAEPSKGKGKCSGSEAGSLSHCERNPTMPDCELLEHHSLPAPQDCLGSDSRSKKQEGDLKKQRAVVPNQECDTQAILLPLPKKIEIIEYTPTVTSLGHTEPGGEATPSKEGEKQGLRKVKMEQSITMFCALDENLNRTLEPSQVSLHPQVLPLPHSSSECDRPADPNPMLSSPQDKGDCPSTPFKTAAPFVSCSTQGASFSLDYLLPHSVVHLEGCTEQSSATDNELSPEQASWEDSRGHFLSSGSGMAHTSSPLTNEDLSLINKLGDSVGVLQKKLDPSPEACRIPHSSSSENIRDLSHSRGVVKEHAKEIESRVIFQAGFSKTSQMKRSASLAKLGYLDLCKDYLPDRELVSSESPHLKLLQPFLRTDSGMHALMAHEPSESAGAQQNPQPTKYSVEQLKTSECIVQSKPVERPSVQYAKEFGYSQQCLLPKARPELTSSEGGLPLLQTQGLQYTGPSPGLAVAPRQQHGRTHPLRRLKRANDKKRTTNPFYNTM
Turning to B9, the binding entry is given as “binds”.
